Drawing on PubChem BioAssay AID328 (DTP/NCI, 2004), this text covers survivor count and T/C for 13 molecules.

The list shows only some results of the screen, not a fair sample: it is rich in T/C values a quarter to a half above the control, in often repeated tests (any T/C) and in doses without a T/C. Other doses and runs of a compound stand elsewhere. T/C gives the treated animals as a percentage of the vehicle group. Some doses have a count of surviving animals in place of a T/C: the source holds a T/C of zero for them, seemingly a mark for toxic or unscored doses. Some survivor counts are full or nearly so, which does not show that the dose was tolerated: survival well below the control is almost never listed, so the zero probably covers shortened survival too. Survivors were counted at the toxicity check, usually on the fifth day, unless a day is given; later deaths do not show. Schedule codes are those of the source, taken here to give the interval after Q, in days (D) or hours (H), and the number of doses after X. Where survival is the endpoint, the PubChem record calls one and a half times the control and up active, and a quarter to a half above the control has no call in these data; cut-offs in other NCI protocols can differ. Some entries hold several experiments; the results are listed from low to high. Marks such as (2×) give the number of equal values in this list. Some T/C values carry the count of animals alive at the toxicity check (mostly the fifth day); where none is given, no animal had died by that day.

The subject of the assay is BDF1 mice, P388 leukemia ip, median survival T/C. In words: NCI In Vivo Anticancer Drug Screen. Data for tumor model P388 Leukemia (intraperitoneal) in B6D2F1 (BDF1) mice. The note with it: T/C endpoint: median survival time, higher T/C = longer survival. How it is done: The antitumor activity of compounds was measured in mice bearing transplantable tumors. Survival or tumor size were measured and the results are expressed as the measurement made in the treated group (T) divided by the measurement made in the vehicle treated control group (C). The tumor model used in this assay is P388 Leukemia (intraperitoneal) in B6D2F1 (BDF1) mice

The mark [1] stands for this setting: dose: 100.0 mg/kg/injection, schedule: Q01DX009 (ip), vehicle: saline with Tween-80.
The mark [2] stands for this setting: dose: 100.0 mg/kg/injection, schedule: Q01DX009 (ip), vehicle: Klucel (hydroxypropylcellulose) (HPC).

As for `COC(C(=O)C(O)C(C)O)C1CC2C=C3C=C(OC4CC(OC5CC(O)C(OC)C(C)O5)C(OC(C)=O)C(C)O4)C(C)C(=O)C3=C(O)C2=C(O)C1OC1CC(OC2CC(OC3CC(C)(O)C(OC(=O)C(C)C)C(C)O3)C(O)C(C)O2)C(O)C(C)O1` (stereo not drawn), the survivor count was 2 of 6 (dose: 0.5 mg/kg/injection, schedule: Q01DX001 (ip), vehicle: other); 1 of 6 (dose: 1.0 mg/kg/injection, schedule: Q01DX001 (ip), vehicle: other); 10 of 10 (dose: 31.2 micrograms/kg/injection, schedule: Q01DX009 (ip), vehicle: saline); 5 of 6 (dose: 37.0 micrograms/kg/injection, schedule: Q01DX009 (ip), vehicle: other); 10 of 10 (dose: 62.5 micrograms/kg/injection, schedule: Q01DX009 (ip), vehicle: saline); 10 of 10 (dose: 62.5 micrograms/kg/injection, schedule: Q04DX003 (ip), vehicle: saline). For the same molecule, the survivor count is on record as 6 of 6 (dose: 75.0 micrograms/kg/injection, schedule: Q01DX009 (ip), vehicle: other); 2 of 6 (dose: 125.0 micrograms/kg/injection, schedule: Q01DX009 (ip), vehicle: other); 9 of 10 (dose: 125.0 micrograms/kg/injection, schedule: Q01DX009 (ip), vehicle: saline); 10 of 10 (dose: 125.0 micrograms/kg/injection, schedule: Q04DX003 (ip), vehicle: saline); 0 of 6 (dose: 250.0 micrograms/kg/injection, schedule: Q01DX009 (ip), vehicle: other); 6 of 10 (dose: 250.0 micrograms/kg/injection, schedule: Q01DX009 (ip), vehicle: saline). The survivor count was 10 of 10 (dose: 250.0 micrograms/kg/injection, schedule: Q04DX003 (ip), vehicle: saline); 10 of 10 (dose: 500.0 micrograms/kg/injection, schedule: Q01DX001 (ip), vehicle: saline); 0 of 10 (dose: 500.0 micrograms/kg/injection, schedule: Q01DX009 (ip), vehicle: saline); 10 of 10 (dose: 500.0 micrograms/kg/injection, schedule: Q04DX003 (ip), vehicle: saline); 10 of 10 (dose: 1000.0 micrograms/kg/injection, schedule: Q01DX001 (ip), vehicle: saline); 0 of 10 (dose: 1000.0 micrograms/kg/injection, schedule: Q01DX009 (ip), vehicle: saline). The survivor count by setting is: (dose: 1000.0 micrograms/kg/injection, schedule: Q04DX003 (ip), vehicle: saline) 7 of 10; (dose: 1000.0 micrograms/kg/injection, schedule: Q08DX002 (ip), vehicle: saline) 7 of 10. For the same molecule, the T/C runs as follows: (dose: 125.0 micrograms/kg/injection, schedule: Q01DX001 (ip), vehicle: saline) 145 % of control; (dose: 250.0 micrograms/kg/injection, schedule: Q08DX002 (ip), vehicle: saline) 130 % of control.
As to `CN=C(N)c1ccc(N=C(N)c2ccc(N=C(N)c3ccc(N=C(O)c4cccc(C(O)=Nc5ccc(C(N)=Nc6ccc(C(N)=Nc7ccc(C(N)=NC)cc7)cc6)cc5)c4)cc3)cc2)cc1`, the T/C is 126 % of control (dose: 2.6 mg/kg/injection, schedule: Q04DX003 (ip), vehicle: saline with Tween-80); 145 % of control (dose: 6.0 mg/kg/injection, schedule: Q01DX009 (ip), vehicle: saline with Tween-80); 126 % of control (dose: 6.0 mg/kg/injection, schedule: Q04DX003 (ip), vehicle: saline with Tween-80); 128, 227, 250 % of control (2×) (dose: 25.0 mg/kg/injection, schedule: Q01DX009 (ip), vehicle: saline with Tween-80). Moreover, the survivor count reads like this: (dose: 50.0 mg/kg/injection, schedule: Q01DX009 (ip), vehicle: saline with Tween-80) 6 of 6; under setting [1], 6 of 6.
Regarding `CC1=CC2C(O)(CC(CO)=CC3C4C(C)(C)C4(OC(=O)c4ccccc4)C(OC(=O)c4ccccc4)C(C)C32O)C1=O` (stereo not drawn), the survivor count (dose: 6.2 micrograms/kg/injection, schedule: Q01DX009 (ip), vehicle: saline with Tween-80) is 4 of 4. Further, the T/C was 126 % of control (dose: 25.0 micrograms/kg/injection, schedule: Q01DX009 (ip), vehicle: saline with Tween-80); 126 % of control (dose: 100.0 micrograms/kg/injection, schedule: Q01DX009 (ip), vehicle: saline with Tween-80); 139 % of control (dose: 400.0 micrograms/kg/injection, schedule: Q01DX009 (ip), vehicle: gum acacia).
For `CCC/C(C)=N/Nc1ccccn1`, the survivor count reads like this: (dose: 12.5 mg/kg/injection, schedule: Q01DX009 (ip), vehicle: saline) 0 of 6; (dose: 25.0 mg/kg/injection, schedule: Q01DX009 (ip), vehicle: saline) 0 of 6; under setting [2], 2 of 6; under setting [1], 5 of 6. Further, the T/C under setting [2] was 125 % of control.
Regarding `O=C1NC(=O)C(c2ccccc2)(c2ccc(Cl)cc2Cl)N1` (stereo not drawn), the survivor count (dose: 400.0 mg/kg/injection, schedule: Q01DX009 (ip), vehicle: saline with Tween-80) is reported as 3 of 6.
Take `O=C(CCCl)N1CCN(C(=O)CCCl)CC1`: the T/C reads like this: under setting [2], 140 % of control; (dose: 200.0 mg/kg/injection, schedule: Q01DX009 (ip), vehicle: Klucel (hydroxypropylcellulose) (HPC)) 125 % of control [5 of 6 alive].
With `CC1CC(OC(=O)CCN2CC2)CC(C)(C)C1` (stereo not drawn), where the note is “dose: 10.0 mg/kg/injection, schedule: Q04DX003 (ip), vehicle: Klucel (hydroxypropylcellulose) (HPC)”, the survivor count is 6 of 6.
As for `COc1cc(C2c3cc4c(cc3C(O)C(CO)C2CO)OCO4)cc(OC)c1OC` (stereo not drawn), the T/C is, setting by setting: (dose: 8.25 mg/kg/injection, schedule: Q01DX009 (ip), vehicle: Klucel (hydroxypropylcellulose) (HPC)) 127 % of control; (dose: 17.5 mg/kg/injection, schedule: Q01DX009 (ip), vehicle: Klucel (hydroxypropylcellulose) (HPC)) 140 % of control; (dose: 35.0 mg/kg/injection, schedule: Q01DX009 (ip), vehicle: Klucel (hydroxypropylcellulose) (HPC)) 145 % of control; (dose: 100.0 mg/kg/injection, schedule: Q04DX003 (ip), vehicle: saline with Tween-80) 140 % of control; (dose: 150.0 mg/kg/injection, schedule: Q04DX003 (ip), vehicle: saline sonified) 145 % of control. Besides, for the setting “dose: 140.0 mg/kg/injection, schedule: Q01DX009 (ip), vehicle: Klucel (hydroxypropylcellulose) (HPC)”, the survivor count is 10 of 10.
Consider `CC(=O)O[C@@H]1C[C@@]2(C)[C@@H]3CC=C4[C@@H](C[C@H](O)C(=O)C4(C)C)[C@]3(C)C(=O)C[C@]2(C)[C@H]1[C@@](C)(O)C(=O)/C=C/C(C)(C)OC(C)=O`, for which the T/C (dose: 6.25 mg/kg/injection, schedule: Q01DX010 (ip), vehicle: carboxymethylcellulose (CMC)) is 127 % of control and the T/C (dose: 50.0 mg/kg/injection, schedule: Q01DX010 (ip), vehicle: carboxymethylcellulose (CMC)) is 136 % of control. The survivor count (dose: 100.0 mg/kg/injection, schedule: Q01DX010 (ip), vehicle: carboxymethylcellulose (CMC)) is on record as 5 of 6.
On to `Cc1cc(/C=C/c2cc[n+](C)c3ccccc23)c(O)c2ncccc12`, for which the T/C was 136 % of control (dose: 1.5 mg/kg/injection, schedule: Q01DX009 (ip), vehicle: saline) and 130 % of control (dose: 3.0 mg/kg/injection, schedule: Q01DX009 (ip), vehicle: Klucel (hydroxypropylcellulose) (HPC)). In addition, the survivor count was 5 of 6 (dose: 24.0 mg/kg/injection, schedule: Q01DX009 (ip), vehicle: Klucel (hydroxypropylcellulose) (HPC)) and 2 of 6 (dose: 48.0 mg/kg/injection, schedule: Q01DX009 (ip), vehicle: Klucel (hydroxypropylcellulose) (HPC)).
With `[F][Fe]([F])([F])([F])([F])[F]`, for the setting “dose: 200.0 mg/kg/injection, schedule: Q01DX009 (ip), vehicle: saline with Tween-80”, the survivor count is listed as 3 of 6.
For the molecule `O/N=C/c1ccccc1O.O/N=C/c1ccccc1O.[Cu]`, the T/C (dose: 25.0 mg/kg/injection, schedule: Q04DX003 (ip), vehicle: saline with Tween-80) was 127 % of control. Besides, the survivor count (dose: 37.5 mg/kg/injection, schedule: Q04DX003 (ip), vehicle: saline with Tween-80) was 2 of 6.
Take `O=C(O)C1C(C(=O)O)C2(Cl)C(Cl)=C(Cl)C1(Cl)C2(Cl)Cl.[Co]` (stereo not drawn): the survivor count under setting [2] is 5 of 6.
